Source: patent publication US20140038203A1, “METHODS FOR DETECTING OR PREDICTING KIDNEY DISEASE” (MUSC FOUNDATION FOR RESEARCH DEVELOPMENT, priority 2012, published 2014)

Assay: RRT study: LC-MS/MS urinary proteomics, AKI after cardiac surgery, RRT vs No RRT
Design: species or system human
Conditions: for Mean No RRT / Mean RRT: urine; for Mean No RRT: AKI patients who did not require RRT (n=6); for Mean RRT: AKI patients who required RRT (n=6)
[1] = direction of urinary abundance, patients who did vs did not require RRT/dialysis
[2] = patients who did vs did not require RRT/dialysis, read with the Up or Down column
[3] = direction of differential abundance, patients who did vs did not require RRT/dialysis
[4] = patients who did vs did not require RRT/dialysis
[5] = RRT vs No RRT, positive = elevated in RRT group

Compound	Up or Down [1]	Mean Fold Change [2]	also measured
COc1ccc(Cc2nccc3cc(OC)c(OC)cc23)cc1OC [Vasorin]	Up	1.359	
ADM	Up	2.795	
Agrin			Up or Down [3]: Down; Mean Fold Change [4]: 1.856
Alpha-1-acid glycoprotein 1: urinary protein, Uniprot P02763	Up	2.51	Mean Fold Change [5]: 2.51; Mean No RRT: 44.94 normalized spectral counts; Mean RRT: 112.82 normalized spectral counts
Alpha-1-antitrypsin: urinary protein, Uniprot P01009	Up	11.11	Mean Fold Change [5]: 11.11; Mean No RRT: 21.55 normalized spectral counts; Mean RRT: 239.32 normalized spectral counts
Alpha-1B-glycoprotein	Up	3.82	
Alpha-2-macroglobulin	Up	4.361	
Alpha-enolase			Up or Down [3]: Down; Mean Fold Change [4]: 1.23
Alpha-hemoglobin-stabilizing protein	Up		
Amyloid beta A4 protein			Up or Down [3]: Down; Mean Fold Change [4]: 1.82
Antithrombin-III	Up	3.245	
Apolipoprotein A-1: urinary protein, Uniprot P02647			Mean Fold Change [5]: 8.529; Mean No RRT: 2.39 normalized spectral counts; Mean RRT: 20.36 normalized spectral counts
Apolipoprotein A-I	Up	14.21	
Apolipoprotein A-II	Up	18.93	
Apolipoprotein C-III	Up		
Apolipoprotein D	Up	1.403	
Basement membrane-specific heparan sulfate proteoglycan core protein			Up or Down [3]: Down; Mean Fold Change [4]: 1.005
Beta-defensin 1 (DHYNCVSSGGQCLYSACPIFTKIQGTCYRGKAKCCK; UniProt P60022 33-68, looked up)			Up or Down [3]: Down; Mean Fold Change [4]: 1.942
C-reactive protein	Up	17.78	

Compound	Up or Down [1]	Mean Fold Change [2]	also measured
CD27 antigen			Up or Down [3]: Down; Mean Fold Change [4]: 2.179
CD44 antigen			Up or Down [3]: Down; Mean Fold Change [4]: 2.25
Carbonic anhydrase 1	Up	2.211	
Cathepsin D	Up	1.016	
Cathepsin L1	Up	1.345	
Cathepsin Z	Up	1.524	
Chitinase-3-like protein 1	Up		
Clusterin	Up	2.645	
Collagen alpha-1(I) chain	Up	1.009	
Collagen alpha-1(VI) chain			Up or Down [3]: Down; Mean Fold Change [4]: 1.543
Collagen alpha-1(XII) chain			Up or Down [3]: Down; Mean Fold Change [4]: 2.88
Collagen alpha-3(VI) chain	Up	1.604	
Complement component C7	Up	5.992	
Complement component C8 gamma chain	Up	101.8623	
Complement component C9	Up		
Complement factor B	Up	2.069	
Complement factor D: urinary protein, Uniprot P00746	Up		Mean RRT: 5.81 normalized spectral counts
Copper transport protein ATOX1	Up		
Cubilin			Up or Down [3]: Down; Mean Fold Change [4]: 1.629
